Source: patent US10004762B2, “Dialysis formulation” (Gambro Lundia AB, priority 2013, dated 2018)

Assay: Acute inflammation: plasma PTX-3 by Human Pentraxin 3/TSG-14 Quantikine ELISA
Format: in vivo

## PTX-3: acute phase protein Pentraxin 3, marker for acute inflammation
HD patients post-dialysis vs controls
  post-dialysis values relative to controls: 4 times
All HD patients
  P1 pre-dialysis plasma concentration ± SEM: 1.8 ± 0.2 ng/mL
  P2 post-dialysis plasma concentration ± SEM: 3.3 ± 0.4 ng/mL
Healthy controls
  plasma concentration, controls: 0.7 ± 0.02 ng/mL
